Source: PubChem BioAssay AID504467 (National Center for Advancing Translational Sciences (NCATS), 2011)
Among all 330,000 compounds or so, about 7,700 (2.3%) were called active. The inconclusive results got no clear call from the source; some entries with a clear call stand among them for comparison. Calls follow the shape of the dose curve; as a rule, active = well fitted inhibition curve with a large enough effect; inconclusive = small, poorly fitted or top-dose-only effect, or effect the other way; inactive = flat fitted curve, though single readings scatter. Potencies of inconclusive entries are doubtful fits and often do not repeat.

Experiment: qHTS screen for small molecules that inhibit ELG1-dependent DNA repair in human embryonic kidney (HEK293T) cells expressing luciferase-tagged ELG1; also: nearly all actives have a fitted effect of over 55% in size
Conditions: HEK293T ELG1-luciferase reporter, luminescence, 16 h, DNA damage induced by 5-fluorouridine; series mostly up to 46.1 µM
In short: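 In this reporter screen, reduction of luminescence relative to DMSO vehicle indicated activity. Compounds and 5-fluorouridine were added together to 2,000 cells per well, incubated for 16 hr at 37 °C, then developed with ONE-Glo.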
Potency is read from the fitted curve at half-maximal effect.

SMILES | Potency
Cc1[nH]c2ccccc2c1C(=O)CSC(=S)N1CCCCC1 | inconclusive: 8.2 µM [activator, partial curve]
CCCn1ncc(C(=O)N(C)C2CCCN(Cc3ccccc3F)C2)c1C (stereo not given) | inactive
COc1ccc(Cn2c(=O)[nH]c3cc(C(=O)N4CCN(c5ccc(OC)cc5)CC4)ccc3c2=O)cc1 | inactive
Cc1ncc(S(=O)(=O)C(C)(C)C)c(N)n1 | inactive
Cn1c(Oc2ccc(F)cc2F)c(C=O)c2ccccc21 | inconclusive: 29.1 µM [inhibitor, partial curve, poor fit]
CCOC(=O)c1[nH]c2ccccc2c1NC(=O)c1ccc(Br)o1 | active: 23.1 µM
NC(=O)c1ccccc1NC(=O)COC(=O)C1(c2ccccc2)CC1 | inactive
Cc1ccc(-c2nn(-c3ccccc3)cc2C(=O)Nc2ccc(C(=O)O)cc2)cc1 | inconclusive: 14.6 µM [activator, partial curve]
COc1cccc(-n2c(C)nc3c(cnn3-c3ccc(C)cc3)c2=O)c1 | inconclusive: 13 µM [inhibitor, partial curve]
CCOC(=O)c1cc(C(=O)OCC)c2ccccn2c1=O | inactive
CC(C)c1nnc(SCC(=O)NC2CCCC2)n1C | inconclusive: 32.6 µM [activator, partial curve, poor fit]
O=C(c1cnn2c(C(F)F)cc(-c3ccccc3)nc12)N1CCOCC1 | inactive
Cc1cc(C(=O)N2CCCC(CCC(=O)N3CCN(c4ccccn4)CC3)C2)c(C)o1 (stereo not given) | inconclusive: 20.6 µM [inhibitor, partial curve, poor fit]
COCCCNc1ncnc2c1cnn2-c1ccc(C)cc1C | inconclusive: 6.51 µM [activator, partial curve, poor fit]
CCN1C(=NCCc2ccc(Br)cc2)N[C@@H](c2ccccc2)[C@H](C(=O)OC)[C@H]1C | inconclusive: 16.4 µM [activator, partial curve]
COc1ccc(N2C(=O)CSC23C(=O)N2CCCc4cccc3c42)cc1 (stereo not given) | inactive
N#C/C(=C\Nc1ccc2c(c1)OCCO2)c1nc(-c2ccccc2)cs1 | inactive
COc1cc(NC(=O)c2ccccc2-c2ccccc2)cc(OC)c1OC | inconclusive: 29.1 µM [activator, single point]
COc1cc(OC)cc(-c2sc3ccc(OC)cc3c2C#CCO)c1 | inactive
O=C(Nc1cccnc1Cl)c1ccc(Cl)cc1 | inconclusive: 16.4 µM [activator, partial curve]
COc1cc2cc(CN(CCN3CCOCC3)C(=O)Nc3ccc(F)cc3)c(=O)[nH]c2cc1OC | inconclusive: 18.3 µM [inhibitor, single point]
Cc1nc(/N=C(\N)NC(=O)N2c3ccccc3Sc3ccccc32)nc2ccccc12 | inactive
Brc1ccc2[nH]c3c(N4CCc5ccccc5C4)ncnc3c2c1 | inconclusive: 2.91 µM [inhibitor, partial curve, poor fit]

SMILES | Potency
Cc1ccc(NC(=O)CN(C)C(=O)CSc2nncn2C)cc1 | inconclusive: 23.1 µM [activator, single point]
COc1ccc(OCc2cc(C(=O)N3CCCC3)no2)c2ccccc12 | inconclusive: 2.59 µM [activator, full curve]
COc1cccc(N2CCN(C(=O)CN3C(=O)NC(C)(c4ccc5ccccc5c4)C3=O)CC2)c1 (stereo not given) | inconclusive: 20.6 µM [inhibitor, single point]
OCCN1CCN(CC#CCn2c3ccccc3c3ccccc32)CC1 | inconclusive: 32.6 µM [activator, partial curve, poor fit]
COc1ccc(-c2cc(CCC(=O)N3CCN(c4cc(C)ccc4C)CC3)[nH]n2)cc1 | inconclusive: 11.6 µM [inhibitor, partial curve]
CCCc1cc(C(=O)NNC(=S)Nc2cccc(C)c2)cs1 | inconclusive: 9.2 µM [activator, partial curve]
O=c1cc(-c2ccccc2)nc2nc(COc3ccccc3)[nH]n12 | inactive
Cc1cc(Cl)ccc1OC(C)C(=O)Nc1ccc([N+](=O)[O-])cn1 (stereo not given) | inactive
O=C(c1cccc(C(=O)N2CCN(c3ccc(F)cc3)CC2)c1)N1CCN(c2ccc(F)cc2)CC1 | active: 18.4 µM
O=C(/C=C/c1cccc(Cl)c1)c1nc2ccccc2[nH]1 | inconclusive: 32.6 µM [inhibitor, partial curve, poor fit]
Cc1ccc(NC(=O)CCc2nc3ccccc3s2)c(O)c1 | inactive
CC(C)(C)[C@H]1C=C(C(=O)N2CCOCC2)O[C@@H](OCCCCO)C1 | inconclusive: 20.6 µM [activator, partial curve, poor fit]
COC(=O)c1cc(=O)n(Cc2cccs2)c(=Nc2ccc(F)cc2)s1 | inactive
O=C(Nc1ccc(N2CCOCC2)nc1)c1c(F)cccc1F | inconclusive: 20.6 µM [activator, partial curve]
O=c1[nH]c2ccccc2n1CCCOc1ccccc1 | inconclusive: 10.3 µM [activator, partial curve, poor fit]
O=[N+]([O-])c1nn(-c2ccc3c(c2)OCCO3)n(O)c1=NCc1ccc(F)cc1 | inconclusive: 2.59 µM [activator, full curve]
C=CCNc1cc(F)ccc1S(=O)(=O)NCC=C | inactive
O=C(c1ccco1)N1CCN(C(=O)C2CC(c3ccc(Cl)cc3)=NO2)CC1 (stereo not given) | inconclusive: 29.1 µM [inhibitor, single point]
Cc1cc(C=C2C(=O)c3ccccc3C2=O)c(C)n1-c1cccc(C(=O)O)c1 | inconclusive: 18.3 µM [activator, partial curve]
C[C@H](CO)N1C[C@H](C)[C@@H](CN(C)Cc2ccc(-c3ccccc3)cc2)Oc2c(NC(=O)Nc3ccc4c(c3)OCO4)cccc2C1=O | active: 23.1 µM
COc1ccc(N2CCN(C(=O)c3cccc(S(=O)(=O)N4CCCc5ccccc54)c3)CC2)cc1 | inconclusive: 11.2 µM [inhibitor, partial curve]
CCc1cc(=O)oc2cc(C)c(CN3CCCCC3)c(O)c12 | inactive

Molecules listed so far that contain an aryl methoxy group, in the order listed:
SMILES | Potency
COc1ccc(Cn2c(=O)[nH]c3cc(C(=O)N4CCN(c5ccc(OC)cc5)CC4)ccc3c2=O)cc1 | inactive
COc1cccc(-n2c(C)nc3c(cnn3-c3ccc(C)cc3)c2=O)c1 | inconclusive: 13 µM [inhibitor, partial curve]
COc1ccc(N2C(=O)CSC23C(=O)N2CCCc4cccc3c42)cc1 (stereo not given) | inactive
COc1cc(NC(=O)c2ccccc2-c2ccccc2)cc(OC)c1OC | inconclusive: 29.1 µM [activator, single point]
COc1cc(OC)cc(-c2sc3ccc(OC)cc3c2C#CCO)c1 | inactive
COc1cc2cc(CN(CCN3CCOCC3)C(=O)Nc3ccc(F)cc3)c(=O)[nH]c2cc1OC | inconclusive: 18.3 µM [inhibitor, single point]
COc1ccc(OCc2cc(C(=O)N3CCCC3)no2)c2ccccc12 | inconclusive: 2.59 µM [activator, full curve]
COc1cccc(N2CCN(C(=O)CN3C(=O)NC(C)(c4ccc5ccccc5c4)C3=O)CC2)c1 (stereo not given) | inconclusive: 20.6 µM [inhibitor, single point]
COc1ccc(-c2cc(CCC(=O)N3CCN(c4cc(C)ccc4C)CC3)[nH]n2)cc1 | inconclusive: 11.6 µM [inhibitor, partial curve]
COc1ccc(N2CCN(C(=O)c3cccc(S(=O)(=O)N4CCCc5ccccc54)c3)CC2)cc1 | inconclusive: 11.2 µM [inhibitor, partial curve]
